# Test results from PubChem BioAssay AID2417 (National Center for Advancing Translational Sciences (NCATS), 2010).
# Hit rate of the full screen: of about 140,000 compounds, about 4,300 (3.1%) were called active. The inconclusive results got no clear call from the source; some entries with a clear call stand among them for comparison.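 The calls were made as follows: active = readout at or below -70, meaning at least 70% loss of cells showing the perinucleolar compartment, a nuclear body marking cancer cells; inconclusive = readout between -30 and a set limit; inactive = the rest.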
# Experiment: High Content Assay for Compounds that inhibit the Assembly of the Perinucleolar Compartment
# Conditions: PC3M PTB-GFP, PNC prevalence imaging, 16 h; at 10 µM; active compounds read low
# From the text: High Content Assay for Compounds that inhibit the Assembly of the Perinucleolar Compartment NIH Chemical Genomics Center [NCGC] NIH Molecular Libraries Probe Centers Network [MLPCN] MLPCN Grant: MH082371-01A2 Assay Submitter (PI): Sui Huang, Northwestern University, Feinberg School of Medicine, Cell and Molecular Biology, Chicago, Illinois. The perinucleolar compartment (PNC) is a non-membrane-bound nuclear subdomain that is associated with but structurally distinct from the nucleolus. The PNC is a heritable trait, in which the number of PNCs per cell in daughter cells often mimics that of their mother cells. The PNC is heterogeneous in shape, is stable through interphase, disassembles during mitosis, and reassembles in early G1. The PNC is concentrated with newly synthesized RNA polymerase III (pol III) RNAs (MRP RNA, RNAse P H1 RNA, hY RNAs[hY1, 2, 5], Alu RNA, and SRP [7SL] RNA) and RNA binding proteins (nucleolin, PTB, CUG-BP, KSRP, Raver1, Raver2, and Rod). […] Extensive in vitro studies have shown that the PNC is unique to tumor cells and preferentially forms in tumor cells derived from solid tissues. Examination of cancer cell lines from various origins and malignant capacities has shown that PNC prevalence correlates with the malignancy of tumors and has the potential to be developed as a pan-cancer prognostic marker. […] Although the PNC is associated with a DNA locus and a handful of components have been identified, much remains to be investigated regarding the structure and function of the PNC and its mechanistic link to cancer. We have previously shown that PNC prevalence reduction is a valid strategy to identify compounds that can be used to study the structure and function of the PNC. It is necessary, however, to create a screening platform that is able to test a large number of compounds in an automated fashion. Here we report the development and robustness of an automated whole-cell phenotypic image-based screening assay that is capable of identifying such compounds.
# PNC High Content Imaging Assay Procedure: 1. Cells at a density of 75-90% confluency in T175 flasks were harvested using 7 ml TrypLE Express cell dissociation reagent. After dissociation (5 minutes room temperature incubation) 10 ml of complete media was added to the TrypLE/cell suspension. The liquid was transferred to a 50 ml Conical tube and cells were pelleted at 1000 RPM for 5 min. Supernatant was removed and cells were resuspended to a final density of 150-200 cells/ul in complete media. 2. Cells were plated in 5 ul volume (750-1000 cells/well) into 1536 well Black uclear Aurora Low Base plates and allowed to recover and adhere at 37 C in a humidified 5% CO2 incubator for 4 hours. 3. After 4 hour incubation, compound libraries (23 nl of […] in columns 5-48) were transferred to the plates in duplicate using a 1536 well pintool. Camptothecin positive control (59 uM final) was added to column 2 and 1:3 dilutions of camptothecin was added to column 3. DMSO negative controls were present in columns 1 and 4. 4. After a 16 hour incubation in the 37 C incubator, cells were fixed by the addition of 4 ul of 6% EM grade paraformaldehyde (containing 0.1% triton X 100) directly to the cells. The plates were incubated at room temperature for 20 minutes. The liquid was removed using a 32 channel Kalypsys aspirator and the fixed cells were washed twice with 5 ul PBS followed by a final addition of 5 ul PBS containing 1 ug/ml Hoechst 33342. 5. Fixed plates were sealed and sotred at 4C until imaged. 6. Plates were imaged on an InCell 1000 automated microscope using a 20 x objective, a standard FITC filter set, no camera binning, and an exposure time of ~100-150 msec/well. 7. Data analysis. PNC prevalence was determined using the Multitarget analysis module from InCell Workstation software (V3.5 ) and analysis was run on a quad core workstation using the Incell Developer Toolbox (V1.7). […]
row,SMILES,"activity change (PNC), negative = inhibition"
1,C=C1CC(C)OC(c2ccccc2OCC(O)CN2CCCCC2)C1 (stereo not given),inconclusive: -64.3%
2,CCc1cccc(CC)c1NC(=S)NCCc1c(C)[nH]c2ccc(C)cc12,inactive: 27.2%
3,Cc1cc(/C=N/n2cnnc2)c(C)n1-c1ccc(OCc2ccccc2F)cc1,inconclusive: -37.4%
4,C/C(=N\NC(=O)c1cccc(S(=O)(=O)Nc2ccccc2Cl)c1)c1ccc(-n2ccnc2)cc1,inconclusive: -31.1%
5,CCOC(=O)C1CCCN(Cc2c(F)cccc2Cl)C1 (stereo not given),inconclusive: -49.1%
6,O=C(Nc1ccc2nc(-c3ccco3)[nH]c2c1)c1cccs1,inactive: 326%
7,CCCCP(=O)(CCCC)c1ccccc1C(=O)O,inactive: 37.7%
8,c1ccc(-c2nn3c(Cn4cnc5ccccc54)nnc3s2)cc1,inactive: -2.59%
9,CCCCS(=O)(=O)Nc1ccc(Cc2ccncc2)cc1,inactive: -15.7%
10,CCOC(=O)c1nn(-c2ccc(OC)cc2)c(=O)c2c(N)scc12,inconclusive: -34.7%
11,COc1ccc(OC)c2c1C(=O)c1ccccc1C2=O,inactive: -27.1%
12,O=c1c2ccc([N+](=O)[O-])c3cccc(c32)c2nc3ccccc3n12,inactive: 13.6%
13,COc1ccc(CSc2nnc(C)n2N)cc1Br,inconclusive: -32.4%
14,Cc1ccc2c(c1)C(c1ccccc1)N(C(=O)c1ccc(S(=O)(=O)N3CCOCC3)cc1)CC(=O)N2 (stereo not given),inactive: 7.14%
15,O=C(CN1C(=O)C2CC=CCC2C1=O)Nc1nnc(SCc2c(Cl)cccc2Cl)s1 (stereo not given),inactive: -18.7%
16,Cc1cc2c(c(=O)n1CCc1ccccc1)C(c1ccco1)C(C#N)=C(N)O2 (stereo not given),inconclusive: -36.4%
17,COc1ccc(S(=O)(=O)Nc2ccccc2C)cc1,inconclusive: -57.8%
18,COc1ccc(Nc2nc(-c3ccccc3)c3ccccc3n2)cc1,inconclusive: -30.6%
19,COc1ccccc1CNC(=O)C(CC(C)C)NC(=O)C1CCC(C)CC1 (stereo not given),active: -102%
20,COCc1ccc(O)c2ncccc12,inactive: -19.6%
21,COc1ccc(-c2cc(C(=O)NCCCn3ccnc3)no2)cc1OC,inactive: -1.76%
22,CNc1nc(C)c(C(=O)c2ccc(Cl)cc2)s1,inconclusive: -59.1%
23,COc1ccc(N2CCN(S(=O)(=O)c3ccc(Br)s3)CC2)cc1,inconclusive: -55.7%

row,SMILES,"activity change (PNC), negative = inhibition"
1,COCC(C)NC(=O)CSc1nc(-c2ccccc2)c(-c2ccccc2)o1 (stereo not given),inactive: 16.9%
2,Cc1cc(C(=O)OCC(=O)NC(C)(C)C)c2ccccc2n1,inactive: 16.1%
3,Oc1c(C(c2cccs2)N2CCN(c3ccccc3)CC2)ccc2cccnc12 (stereo not given),inconclusive: -40.2%
4,CCOC(=O)c1ccc(NC(=O)N(CC)CC)cc1,active: -92.1%
5,O=C(c1ccccc1Oc1ccccc1)N1CCN(c2ccccc2F)CC1,inactive: -24%
6,Cc1no[n+]([O-])c1COc1ccccc1/C=C1\NC(=S)NC1=O,inconclusive: -50.2%
7,CCOc1ccc(CNC(=S)N/N=C\c2ccc([N+](=O)[O-])cc2)cc1,active: -92.2%
8,Cc1nc(SCC(=O)NCc2ccccc2)c2c(=O)n(C)c(=O)n(C)c2n1,inconclusive: -31.6%
9,CCc1c(C)sc2nc(C(C)C)nc(SCC(=O)N3CCc4ccccc4C3)c12,inconclusive: -66.4%
10,COc1ccc(CCNC(=O)Cn2cnc3c(nnn3Cc3ccc(C)cc3)c2=O)cc1OC,inactive: 14.7%
11,O=C(NNC(=O)c1ccccc1)C(=O)N1CCCCC1,inconclusive: -49.7%
12,Cc1ccc(Nc2nnc(SCC(=O)Nc3ccccc3[N+](=O)[O-])s2)cc1,active: -119%
13,Cc1ccc(S(=O)(=O)n2ccc(-c3ccc(OCc4c(F)cccc4Cl)cc3)n2)cc1,active: -100%
14,COc1ccccc1CN(C)C(=O)C1COc2ccccc2O1 (stereo not given),inconclusive: -34.3%
15,O=C(Nc1cccc(Cl)c1)N1CCSc2cc(Cl)ccc21,inconclusive: -45.7%
16,Cn1c(N)c(C(=O)c2cc(-c3ccccn3)nc3ccccc23)c(=O)[nH]c1=O,inactive: -14.4%
17,COc1ccc(N2C(=O)CC(NC3CC3)C2=O)cc1 (stereo not given),inactive: 0.928%
18,Cc1cccc(N2CCN(C(=O)COc3cccc4c3OC(C)(C)C4)CC2)c1C,inconclusive: -30.4%
19,Cc1ccc(Oc2nc3c(c(=O)n(Cc4ccccc4F)c(=O)n3C)n2C)cc1,active: -84.5%
20,CCOC(=O)c1nnn(-c2nonc2-n2cccc2)c1CN1CCCCC1,inactive: 17.8%
21,N=c1c(S(=O)(=O)c2ccccc2)cc2c(=O)n3ccccc3nc2n1CC1CCCO1 (stereo not given),inconclusive: -45.8%
22,O=C(Nc1ccc2c(c1)CCC2)c1cnn2c1NC(c1ccco1)CC2C(F)(F)F (stereo not given),inconclusive: -48%

# 3 compounds already listed, ordered by number of heavy atoms, high to low.
row,SMILES,"activity change (PNC), negative = inhibition"
22,O=C(Nc1ccc2c(c1)CCC2)c1cnn2c1NC(c1ccco1)CC2C(F)(F)F (stereo not given),inconclusive: -48%
9,CCc1c(C)sc2nc(C(C)C)nc(SCC(=O)N3CCc4ccccc4C3)c12,inconclusive: -66.4%
15,O=C(Nc1cccc(Cl)c1)N1CCSc2cc(Cl)ccc21,inconclusive: -45.7%
